PubChem BioAssay AID504834 (National Center for Advancing Translational Sciences (NCATS), 2011)
Out of some 320,000 compounds screened, about 22,000 (6.9%) were called active. This list was built around the results that the source calls inconclusive (neither active nor inactive); the mix of calls is not that of the screen. Calls come from the whole dose curve; as a rule, active = well fitted inhibition curve with a large enough effect; inconclusive = small, poorly fitted or top-dose-only effect, or another doubt; inactive = no such curve, though single readings can be large or run the other way. Where the call is inconclusive, the potency comes from a doubtful curve fit.

Assay: Primary qHTS for delayed death inhibitors of the malarial parasite plastid, 96 hour incubation
Conditions: P. falciparum luciferase reporter growth; series mostly up to 28.7 µM
Outline: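 Readout is luminescence from an integrated firefly luciferase in P. falciparum. Red cells, 2% hematocrit and 0.05% parasitemia final, were cultured with compound through two parasite generations (96 hours) at 37 C, 5% CO2.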
Potency is the fitted concentration of half-maximal effect.

Structure (SMILES)	Potency
COc1cccc(/C=N\NC(=O)c2ccc(C)nc2)c1	inconclusive: 18.5 µM [inhibitor, single point]
C=CCn1c(SCCNC(C)=O)nc2cc(-c3ccccc3)sc2c1=O	inconclusive: 1.17 µM [inhibitor, full curve]
Cc1cc(OCC(=O)NCCc2ccc(S(N)(=O)=O)cc2)c2c(C)cc(=O)oc2c1	inactive
Cc1ccc(N2C(=O)C(CC(=O)Nc3cccc(F)c3)N(C3CC3)C2=O)cc1 (stereo not given)	inactive
O=C(O)c1ccc(C[n+]2c(-c3ccccc3)csc2Nc2ccccc2)cc1	inactive
Cc1cccc(C)c1NC(=O)c1sccc1SCc1cccc(C(F)(F)F)c1	inconclusive: 1.04 µM [inhibitor, partial curve, poor fit]
COc1ccc(NC(=O)NCCN2CCN(c3ccc(C)cc3)CC2)c(Cl)c1	inconclusive: 16.5 µM [inhibitor, partial curve, poor fit]
COc1ccc(S(=O)(=O)N2CCC(C(=O)Oc3ccc(C)cc3)CC2)cc1OC	inactive
COc1cccc(CNC(=O)CNS(=O)(=O)c2ccc(Br)s2)c1	inconclusive: 18.5 µM [inhibitor, single point]
Cn1ncc(Cl)c1C(=O)Nc1ccc(CN2CCCCC2)cc1	inactive
O=C(O)CC1c2ccccc2S(=O)(=O)N1Cc1ccccc1 (stereo not given)	inconclusive: 4.65 µM [inhibitor, full curve, poor fit]
COc1ccc(S(=O)(=O)NCc2cccnc2)cc1OC	inconclusive: 1.31 µM [inhibitor, partial curve, poor fit]
CCC(=O)Nc1nc(C)c(-c2csc(Nc3ccc(S(=O)(=O)Nc4cc(C)on4)cc3)n2)s1	inactive
O=Cc1cccn1Cc1ccccc1[N+](=O)[O-]	active: 9.28 µM
O=S(=O)(Nc1ccc(S(=O)(=O)N2CCCCCC2)cc1)c1cccs1	inconclusive: 9.28 µM [inhibitor, single point]
Cc1ccc2nc(Nc3ccccc3O)nc(-c3ccccc3)c2c1	inconclusive: 8.28 µM [inhibitor, partial curve, poor fit]
CCc1cc(CNC(=O)C2CCC(=O)N(CCc3cccc(F)c3)C2)on1 (stereo not given)	active: 13.1 µM
NC(=O)CCn1c(C(=O)c2ccc(Cl)cc2)c2ccccc2[n+]1[O-]	inactive
Cc1ccc(Cn2ncc3c(N4CCOCC4)ncnc32)cc1	inactive
CCCCN(C)CCCNC(=O)c1cn(CC)c2ccc(S(=O)(=O)N3CCOCC3)cc2c1=O	inconclusive: 20.8 µM [inhibitor, single point]
Cc1ccc(C(=O)Nc2nc(-c3ccc([N+](=O)[O-])cc3)cs2)o1	inconclusive: 10.4 µM [inhibitor, single point]
Cc1ccc(-c2nnc(OCC3CCCO3)c3ccccc23)cc1 (stereo not given)	inconclusive: 0.738 µM [inhibitor, full curve, poor fit]
CCn1cnc2c1c(=O)[nH]c(=O)n2Cc1ccccc1	inconclusive: 0.738 µM [inhibitor, full curve, poor fit]

Some of these compounds in order of molar mass, high to low.
Structure (SMILES)	Potency
CCCCN(C)CCCNC(=O)c1cn(CC)c2ccc(S(=O)(=O)N3CCOCC3)cc2c1=O	inconclusive: 20.8 µM [inhibitor, single point]
C=CCn1c(SCCNC(C)=O)nc2cc(-c3ccccc3)sc2c1=O	inconclusive: 1.17 µM [inhibitor, full curve]
Cn1ncc(Cl)c1C(=O)Nc1ccc(CN2CCCCC2)cc1	inactive

Next entries.

Structure (SMILES)	Potency
COc1ccc(/C=N/NC(=O)c2ccc(Br)cc2)c(OC)c1	inconclusive: 18.5 µM [inhibitor, single point]
COC(=O)c1ccc(C(NC(=O)OCc2ccccc2)/C(F)=C/[C@@H](C)C(=O)NCc2ccc(OC)c(OC)c2)cc1 (stereo not given in full)	inconclusive: 10.4 µM [inhibitor, single point]
O=S(Cc1ccc(Br)cc1)Cc1nnc(SCc2ccc(Br)cc2)n1-c1ccccc1 (stereo not given)	inconclusive: 16.5 µM [inhibitor, single point]
CC1=CC(=O)C=C(C)C1=NOC(=O)c1cccc([N+](=O)[O-])c1	inconclusive: 18.5 µM [inhibitor, single point]
CC1=C(C(=O)Nc2ccccc2F)C(c2cccs2)NC(=S)N1 (stereo not given)	inconclusive: 1.31 µM [inhibitor, full curve, poor fit]
Cc1ccc(C(=O)N2CCC(n3nccc3NC(=O)Nc3cccc(F)c3)CC2)cn1	inactive
Cc1ccc(S(=O)(=O)N2CCN(C(=O)C(C)Cn3nc(C)c(C)c3C)CC2)cc1 (stereo not given)	inactive
O=C1/C(=C\c2ccco2)SC(=S)N1C1CCCCC1	inconclusive: 13.1 µM [inhibitor, single point]
CCCc1cc(-c2nc(-c3ccc(Br)cc3)cs2)ccn1	inactive
CCOCCCNC(=O)C(NC(=O)Cc1cccs1)c1ccc(Cl)cc1 (stereo not given)	inconclusive: 18.5 µM [inhibitor, single point]
CCCCn1c(SCC(=O)NC2CCCC2)nnc1-c1ccco1	inactive
CSc1ccc(/C=C/C(=O)c2ccc(O)cc2)cc1	inconclusive: 18.5 µM [inhibitor, single point]
CCOC(=O)C1=C(c2ccccc2)Nc2ncnn2C1c1ccc(OC)c(OC)c1OC (stereo not given)	inconclusive: 11.7 µM [inhibitor, single point]
Cc1ccc(C)n1-c1c(C(=O)NN)cnn1-c1ccccc1	inconclusive: 5.86 µM [inhibitor, partial curve, poor fit]
CCOc1ccc(/C=N/Nc2nc(=O)[nH]nc2C)cc1OC	inconclusive: 4.65 µM [inhibitor, partial curve, poor fit]
COc1cc2[nH]c(-c3ccc(C)cc3)cc(=O)c2cc1OC	inconclusive: 18.5 µM [inhibitor, single point]
Cc1ccc(C(=O)NC(=S)N2CCCC2)cc1	inconclusive: 5.22 µM [inhibitor, partial curve]
COc1ccc(NC(=O)CN2C(=O)NC(C)(C3CC3)C2=O)cc1S(=O)(=O)N1CCCCC1 (stereo not given)	inconclusive: 10.4 µM [inhibitor, single point]
COc1ccc(-c2nn(CCC#N)cc2C(=O)Nc2cccc(C(=O)O)c2)cc1OC	inactive
O=C(CSc1nncs1)NC(=O)NC1CCCC1	inconclusive: 10.4 µM [inhibitor, single point]
Oc1ccc(N=Nc2ccccc2)cc1	inactive
Cc1ccc(NC(=O)CSc2nnc(-c3ccco3)c(-c3ccco3)n2)cc1	inconclusive: 7.38 µM [inhibitor, partial curve]
